Laboratory results: paper PMC4851422
These are yes or no findings as the source states them, for the method shown. For some of these results: Binding seen in cells or lysates may run through a third protein. Some entries that bind do so weakly or less than the wild type.

The chains behind the UniProt entries cited, without tags or fusion partners.
UniProt P40763: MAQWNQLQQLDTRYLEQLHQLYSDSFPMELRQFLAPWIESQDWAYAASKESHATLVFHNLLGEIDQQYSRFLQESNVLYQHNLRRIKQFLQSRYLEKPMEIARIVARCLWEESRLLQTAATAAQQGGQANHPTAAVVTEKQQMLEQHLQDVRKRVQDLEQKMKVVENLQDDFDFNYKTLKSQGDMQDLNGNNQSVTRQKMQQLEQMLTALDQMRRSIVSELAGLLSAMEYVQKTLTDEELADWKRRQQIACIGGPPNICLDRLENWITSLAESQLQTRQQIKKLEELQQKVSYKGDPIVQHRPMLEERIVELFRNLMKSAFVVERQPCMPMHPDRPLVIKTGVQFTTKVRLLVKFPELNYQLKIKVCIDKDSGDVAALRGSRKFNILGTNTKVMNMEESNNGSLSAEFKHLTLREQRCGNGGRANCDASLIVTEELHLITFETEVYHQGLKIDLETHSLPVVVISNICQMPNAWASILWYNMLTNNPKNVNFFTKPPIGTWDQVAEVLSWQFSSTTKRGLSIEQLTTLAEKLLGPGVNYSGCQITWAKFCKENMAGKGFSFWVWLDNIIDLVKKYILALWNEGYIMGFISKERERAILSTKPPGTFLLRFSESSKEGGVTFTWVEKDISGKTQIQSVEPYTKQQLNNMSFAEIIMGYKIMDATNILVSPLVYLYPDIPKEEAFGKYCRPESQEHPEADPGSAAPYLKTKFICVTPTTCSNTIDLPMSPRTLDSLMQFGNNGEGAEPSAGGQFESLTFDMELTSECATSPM
UniProt P55822: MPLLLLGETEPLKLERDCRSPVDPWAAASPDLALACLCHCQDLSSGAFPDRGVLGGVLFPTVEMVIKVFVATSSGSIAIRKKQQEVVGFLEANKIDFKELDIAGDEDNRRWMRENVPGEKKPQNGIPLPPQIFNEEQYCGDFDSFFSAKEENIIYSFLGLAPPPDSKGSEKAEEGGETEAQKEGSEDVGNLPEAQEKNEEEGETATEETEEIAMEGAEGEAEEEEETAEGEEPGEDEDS

What was measured:
[1] = biological target: GST-STAT3 fusion protein (full-length STAT3) (UniProt P40763); assay: pull-down; equal amounts of GST or GST-STAT3 incubated with purified His-tagged SH3BGR for 2 h at 4 °C in 50 mM Tris-HCl pH 7.5, 100 mM NaCl, 0.25% Triton-X100, 35 mM 2-Me; bound SH3BGR detected with anti-His antibody; both purified
[2] = biological target: SH3 domain binding glutamate-rich protein (SH3BGR), endogenous in HUVEC (human (endogenous in HUVEC)) (UniProt P55822); assay: co-IP; HUVEC lysates (150 mM NaCl, 1 mM EDTA, 5% glycerol, 1% NP-40, 25 mM Tris-HCl pH 7.4); IP with antibody against SH3BGR or STAT3 overnight at 4 °C, protein A beads, Western blot; cells untreated, transduced with lentivirus-SH3BGR or transfected with pCMV3-Flag-STAT3
[3] = biological target: SH3BGR with a Flag tag at the C-terminus (pHAGE-SH3BGR, lentivirus-SH3BGR) (human) (UniProt P55822); assay: as above

Substance | binding [1] | binding [2] | binding [3]
6 x His-SH3BGR protein (from UniProt P55822 1-239) | binds | – | –
Flag-STAT3 (pCMV3-Flag-STAT3 construct) (from UniProt P40763 1-770) | – | binds | –
STAT3, endogenous in HUVEC (from UniProt P40763 1-770) | – | binds | binds
